{"source": "PubChem BioAssay AID504764 (Drosophila RNAi Screening Center, 2011)", "purpose": "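Genome-wide screen for regulators of Notch-driven gene expression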 (primary screen)", "cell system": "Drosophila Kc167 cells", "reagents": "long dsRNA against Drosophila genes", "timing": "about 5 days (4 days dsRNA, then 24 h after transfection)", "treatment": "transfection of constitutively active membrane-tethered Notch lacking the extracellular domain, read 24 h later", "measured": "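Light from a Notch-responsive E(spl)m3 luciferase reporter under active Notch, with control-promoter and no-Notch reporter wells to normalise; raw counts from paired wells a and b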", "direction": "induced reporter light, run 1, well a and induced reporter light, run 1, well b: higher = more light from the Notch target reporter with active Notch; control promoter light, run 1, well a and control promoter light, run 1, well b: higher = more light from the viral control promoter (cell number, transfection, viability); uninduced reporter light, run 1, well a: higher = more light from the Notch target reporter without active Notch", "rule for the call": "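Hit if the duplicate-averaged log2 ratio of induced to control-promoter light gives a plate-wise z beyond ±2, or induced to uninduced beyond ±1.8; weak-control or discordant-duplicate wells dropped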", "calls": "active = modifier hit (raised or lowered Notch signal); inactive = not a hit", "note": "In all, the deposit lists about 22,000 reagents; this is an unselected part of those with a known target gene and a result. Of all reagents, 403 (1.9%) are marked active. 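Unnormalised raw counts per well; ratio z-scores behind the hit calls and whether each hit raises or lowers signal are not deposited.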 Names joined by + are all predicted targets of the reagent. Not stated in the record: the amount of reagent."}
{"gene":"Kr-h2 (Kruppel homolog 2)","DRSC id":"DRSC03356","induced reporter light, run 1, well a":60670,"induced reporter light, run 1, well b":50050,"control promoter light, run 1, well a":48320,"control promoter light, run 1, well b":66700,"uninduced reporter light, run 1, well a":3592,"Call":"inactive"}
{"gene":"CG5250","DRSC id":"DRSC15752","induced reporter light, run 1, well a":1.86e5,"induced reporter light, run 1, well b":1.81e5,"control promoter light, run 1, well a":2.24e5,"control promoter light, run 1, well b":2.27e5,"uninduced reporter light, run 1, well a":12615,"Call":"inactive"}
{"gene":"Grl36a (Gustatory receptor-like 36a)","DRSC id":"DRSC21748","Call":"inactive"}
{"gene":"CG31213","DRSC id":"DRSC14312","induced reporter light, run 1, well a":2.03e5,"induced reporter light, run 1, well b":1.89e5,"control promoter light, run 1, well a":2.14e5,"control promoter light, run 1, well b":2.21e5,"uninduced reporter light, run 1, well a":16215,"Call":"inactive"}
{"gene":"CG31213","DRSC id":"DRSC15647","induced reporter light, run 1, well a":2.25e5,"induced reporter light, run 1, well b":1.83e5,"control promoter light, run 1, well a":2.12e5,"control promoter light, run 1, well b":2.56e5,"uninduced reporter light, run 1, well a":12900,"Call":"inactive"}
{"gene":"DIP1 (DISCO Interacting Protein 1)","DRSC id":"DRSC20818","induced reporter light, run 1, well a":1.33e5,"induced reporter light, run 1, well b":1.09e5,"control promoter light, run 1, well a":1.48e5,"control promoter light, run 1, well b":1.72e5,"uninduced reporter light, run 1, well a":12985,"Call":"inactive"}
{"gene":"CG10062","DRSC id":"DRSC05960","induced reporter light, run 1, well a":1.12e5,"induced reporter light, run 1, well b":1.09e5,"control promoter light, run 1, well a":1.74e5,"control promoter light, run 1, well b":2.04e5,"uninduced reporter light, run 1, well a":8545,"Call":"inactive"}
{"gene":"pigs (pickled eggs)","DRSC id":"DRSC17472","induced reporter light, run 1, well a":72470,"induced reporter light, run 1, well b":55590,"control promoter light, run 1, well a":73450,"control promoter light, run 1, well b":74110,"uninduced reporter light, run 1, well a":4965,"Call":"inactive"}
{"gene":"pigs (pickled eggs)","DRSC id":"DRSC18334","induced reporter light, run 1, well a":1.46e5,"induced reporter light, run 1, well b":1.65e5,"control promoter light, run 1, well a":3.03e5,"control promoter light, run 1, well b":3.35e5,"uninduced reporter light, run 1, well a":10650,"Call":"inactive"}
{"gene":"pigs (pickled eggs)","DRSC id":"DRSC18335","induced reporter light, run 1, well a":1.41e5,"induced reporter light, run 1, well b":1.50e5,"control promoter light, run 1, well a":2.92e5,"control promoter light, run 1, well b":2.63e5,"uninduced reporter light, run 1, well a":11535,"Call":"inactive"}
{"gene":"comm2","DRSC id":"DRSC09881","induced reporter light, run 1, well a":33110,"induced reporter light, run 1, well b":25375,"control promoter light, run 1, well a":24245,"control promoter light, run 1, well b":20670,"uninduced reporter light, run 1, well a":5870,"Call":"inactive"}
{"gene":"comm2","DRSC id":"DRSC10877","induced reporter light, run 1, well a":1.52e5,"induced reporter light, run 1, well b":1.75e5,"control promoter light, run 1, well a":2.20e5,"control promoter light, run 1, well b":2.28e5,"uninduced reporter light, run 1, well a":9605,"Call":"inactive"}
{"gene":"CG13654","DRSC id":"DRSC14654","induced reporter light, run 1, well a":1.64e5,"induced reporter light, run 1, well b":1.51e5,"control promoter light, run 1, well a":2.08e5,"control promoter light, run 1, well b":1.87e5,"uninduced reporter light, run 1, well a":13935,"Call":"inactive"}
{"gene":"CG33981 + fab1","DRSC id":"DRSC07412","induced reporter light, run 1, well a":1.09e5,"induced reporter light, run 1, well b":1.08e5,"control promoter light, run 1, well a":1.83e5,"control promoter light, run 1, well b":1.93e5,"uninduced reporter light, run 1, well a":9010,"Call":"inactive"}
{"gene":"ND-B14.7 (NADH dehydrogenase (ubiquinone) B14.7 subunit)","DRSC id":"DRSC04544","induced reporter light, run 1, well a":43450,"induced reporter light, run 1, well b":35670,"control promoter light, run 1, well a":44465,"control promoter light, run 1, well b":56560,"uninduced reporter light, run 1, well a":1792,"Call":"inactive"}
{"gene":"Cog1 (Component of oligomeric golgi complex 1)","DRSC id":"DRSC15661","induced reporter light, run 1, well a":1.37e5,"induced reporter light, run 1, well b":1.19e5,"control promoter light, run 1, well a":91080,"control promoter light, run 1, well b":74515,"uninduced reporter light, run 1, well a":10800,"Call":"inactive"}
{"gene":"boca","DRSC id":"DRSC06408","induced reporter light, run 1, well a":1.63e5,"induced reporter light, run 1, well b":1.22e5,"control promoter light, run 1, well a":2.10e5,"control promoter light, run 1, well b":1.79e5,"uninduced reporter light, run 1, well a":12830,"Call":"inactive"}
{"gene":"CG17036","DRSC id":"DRSC02564","induced reporter light, run 1, well a":2.32e5,"induced reporter light, run 1, well b":2.35e5,"control promoter light, run 1, well a":2.07e5,"control promoter light, run 1, well b":2.72e5,"uninduced reporter light, run 1, well a":21490,"Call":"inactive"}

Reformatted: entries from further up
{"gene": "CG13654", "DRSC id": "DRSC14654", "induced reporter light, run 1, well a": 1.64e5, "induced reporter light, run 1, well b": 1.51e5, "control promoter light, run 1, well a": 2.08e5, "control promoter light, run 1, well b": 1.87e5, "uninduced reporter light, run 1, well a": 13935, "Call": "inactive"}
{"gene": "CG33981 + fab1", "DRSC id": "DRSC07412", "induced reporter light, run 1, well a": 1.09e5, "induced reporter light, run 1, well b": 1.08e5, "control promoter light, run 1, well a": 1.83e5, "control promoter light, run 1, well b": 1.93e5, "uninduced reporter light, run 1, well a": 9010, "Call": "inactive"}
